# “And” between values parts separate entries of the source, which are not always exact repeats. Equal values may be shown once. This is one part of the list. Each value is one well over the wells without odorant, computed here; the data are noisy.
# Chains of the proteins cited; added tags and fusions are not shown. A line that says so, or that is headed by a name, gives the form on record, which may keep a tag or linker.
# OR11H13, as listed by the source: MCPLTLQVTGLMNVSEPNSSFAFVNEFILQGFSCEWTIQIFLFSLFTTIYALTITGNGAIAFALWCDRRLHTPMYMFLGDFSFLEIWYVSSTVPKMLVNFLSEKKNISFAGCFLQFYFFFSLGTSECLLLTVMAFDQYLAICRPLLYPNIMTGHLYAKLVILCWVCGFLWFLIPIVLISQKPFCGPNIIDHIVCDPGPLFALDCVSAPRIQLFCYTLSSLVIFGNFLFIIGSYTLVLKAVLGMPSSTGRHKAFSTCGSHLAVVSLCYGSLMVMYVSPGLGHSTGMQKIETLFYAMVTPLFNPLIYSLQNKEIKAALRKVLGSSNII
# Columns and labels:
# Test in all cases: odorant receptor activation (CRE luciferase / Renilla) (fold of no-odor wells); higher = more activation
# Settings in all cases: 100 µM
# OR10R2 clone 1400 = system: OR10R2 clone 1400
# OR10T2 clone 1032 = system: OR10T2 clone 1032
# [1] = system: OR10V1 Q101L/V117A/Q123W clone 1520
# OR10W1 R263Q clone 1176 = system: OR10W1 R263Q clone 1176
# OR10X1 clone 1368 = system: OR10X1 clone 1368
# OR10X1 clone 1516 = system: OR10X1 clone 1516
# OR10Z1 clone 1026 = system: OR10Z1 clone 1026
# OR11A1 clone 1062 = system: OR11A1 clone 1062
# OR11H1 clone 1558 = system: OR11H1 clone 1558
# OR11H12 clone 1302 = system: OR11H12 clone 1302
# OR11H13 clone 1435 = system: OR11H13 clone 1435
# OR11H4 clone 1263 = system: OR11H4 clone 1263
# OR11H4 clone 1423 = system: OR11H4 clone 1423
# OR11H6 clone 1275 = system: OR11H6 clone 1275
# [2] = system: OR11L1 G108S/F117L/A142T/R171P clone 1031
# [3] = system: OR12D2 V47F/L56P/S104F/F113L/L120R/V159I clone 1373
# OR12D2 clone 1075 = system: OR12D2 clone 1075
# OR12D3 clone 1071 = system: OR12D3 clone 1071
# OR13A1 clone 1107 = system: OR13A1 clone 1107
# OR13C2 clone 1717 = system: OR13C2 clone 1717
Compound,odorant receptor activation (OR10R2 clone 1400),odorant receptor activation (OR10T2 clone 1032),odorant receptor activation [1],odorant receptor activation (OR10W1 R263Q clone 1176),odorant receptor activation (OR10X1 clone 1368),odorant receptor activation (OR10X1 clone 1516),odorant receptor activation (OR10Z1 clone 1026),odorant receptor activation (OR11A1 clone 1062),odorant receptor activation (OR11H1 clone 1558),odorant receptor activation (OR11H12 clone 1302),odorant receptor activation (OR11H13 clone 1435),odorant receptor activation (OR11H4 clone 1263),odorant receptor activation (OR11H4 clone 1423),odorant receptor activation (OR11H6 clone 1275),odorant receptor activation [2],odorant receptor activation [3],odorant receptor activation (OR12D2 clone 1075),odorant receptor activation (OR12D3 clone 1071),odorant receptor activation (OR13A1 clone 1107),odorant receptor activation (OR13C2 clone 1717)
"CC1CCC(C(C)C)C(O)C1 (single isomer, unassigned; (+)) [(+)-menthol]",0.635,4.53,1.44,1.17,0.56,1.11,3.35,4.42,1.01,1.2,1.88,0.783,0.933,0.792,4.3,0.221,1.96,4.8,8.9,0.589
C=CCSCC=C [diallyl sulfide],1.17,1.06,1.69,1.42,0.954,1.31,0.898,0.954,0.859,1.03,1.28,0.88,1.39,0.967,0.975,1.24,0.889,0.958,1.14,0.8
CC1=NC(C)SC1C (configuration not stated),0.819,0.819,0.947 and 1.02,0.942,0.931,1.19 and 0.972,0.659,1.92,,1.16,0.977,1.21,1.05,1.1,1.41,0.95,1.03,0.805,0.788,
CCC1(O)C2(C)CCC(C2)C1(C)C (configuration not stated) [2-ethylfenchol],0.785,3.15,0.953,0.888,0.634,1.18,3.61,29,1.34,1.04,1.25,0.836,0.747,0.819,4.71,0.212,2.73,4.82,14.2,0.906
CCCCCC(C)=O [2-heptanone],0.745,1.36,0.707 and 0.568,0.835,1.03,0.957 and 0.572,0.835,0.347,,0.919,0.914,1.41,0.724,1.73,0.657,1.06,0.622,0.313,0.542,
CC12C=CCC1C1CCC3CC(=O)CCC3(C)C1CC2 (configuration not stated) [androstenone],0.532,2.13,1.1,6.04,0.799,1.19,1.76,1.92,,1.26,1.42,1.26,0.893,1.14,2.27,0.209,1.27,2.06,8.12,
CC/C=C\CCO [cis-3-hexen-1-ol],0.147,0.87,0.995,0.998,0.202,1.33,1.05,0.78,0.89,0.897,0.213,0.807,0.161,0.914,0.929,0.226,0.939,0.978,0.712,0.876
CC(=O)c1ccccc1 [acetophenone],0.733,1.11,0.818 and 0.724,0.917,0.926,1.06 and 0.684,1.26,1.21,,1.3,1.03,1.42,0.923,1.79,1.13,0.975,0.747,1.07,0.757,
CC(C)(C)c1ccc(CCC=O)cc1 [bourgeonal],0.129,0.768,0.903,0.76,0.198,1.77,0.821,0.77,,0.776,0.125,0.702,0.157,0.907,0.943,0.164,0.928,0.965,0.992,
COc1cc(C=O)ccc1O [vanillin],0.896,1.07,0.942,1.04,0.764,0.933,0.822,1.55,1.02,0.963,1.1,1.05,0.771,0.944,0.825,0.789,0.989,0.945,0.729,0.705
CCCCCCCC=O [octyl aldehyde],0.845,1.29,0.956,1.23,0.786,0.828,1.16,1.08,0.953,1.35,0.957,1.05,0.761,1.24,1.25,0.905,1.58,1.33,1.58,0.901
CC=Cc1ccc(O)c(OC)c1 [isoeugenol],1.53,1.89,0.972 and 2.71,1.7,1.58,1.2 and 2,1.55,0.901,0.644,1.18 and 1.21,1.33,1.18 and 1.12,1.82,0.996 and 1.55,1.41,1.48,1.05,1.2,2.02,4.39
CCCCCCCCC=O [nonyl aldehyde],1.01,0.998,0.973,1.17,0.997,0.912,0.953,1.27,0.772,1.03,1.21,0.981,1.01,1,1.04,0.916,0.975,1.26,1.27,0.716
O=C1CCCCCCCCCCCC(=O)OCCO1 [ethylene brassylate],1.49,1.24,1.49,1.66,1.81,1.51,1.49,2.14,1.16,1.55,1.86,1.74,1.39,1.3,1.68,1.45,1.18,1.28,1.64,1.33
O=C1CCCCC1 [Cyclohexanone],0.658,0.854,0.47 and 0.877,0.794,0.873,1.1 and 1.03,0.834,0.498,,0.725,0.873,0.742,0.852,0.788,1.29,1.08,1.55,0.597,0.588,
C=CC(C)(O)CCC=C(C)C (configuration not stated) [linalool],1.2,1.2,1.13,1.15,1.04,0.87,1.11,1.37,0.713,1.32,1.2,0.896,0.853,0.981,1.27,0.829,1.29,1.48,1.51,0.952

# Random excerpt: 2 compounds from above.
Compound,odorant receptor activation (OR10R2 clone 1400),odorant receptor activation (OR10T2 clone 1032),odorant receptor activation [1],odorant receptor activation (OR10W1 R263Q clone 1176),odorant receptor activation (OR10X1 clone 1368),odorant receptor activation (OR10X1 clone 1516),odorant receptor activation (OR10Z1 clone 1026),odorant receptor activation (OR11A1 clone 1062),odorant receptor activation (OR11H1 clone 1558),odorant receptor activation (OR11H12 clone 1302),odorant receptor activation (OR11H13 clone 1435),odorant receptor activation (OR11H4 clone 1263),odorant receptor activation (OR11H4 clone 1423),odorant receptor activation (OR11H6 clone 1275),odorant receptor activation [2],odorant receptor activation [3],odorant receptor activation (OR12D2 clone 1075),odorant receptor activation (OR12D3 clone 1071),odorant receptor activation (OR13A1 clone 1107),odorant receptor activation (OR13C2 clone 1717)
CC(C)(C)c1ccc(CCC=O)cc1 [bourgeonal],0.129,0.768,0.903,0.76,0.198,1.77,0.821,0.77,,0.776,0.125,0.702,0.157,0.907,0.943,0.164,0.928,0.965,0.992,
C=CCSCC=C [diallyl sulfide],1.17,1.06,1.69,1.42,0.954,1.31,0.898,0.954,0.859,1.03,1.28,0.88,1.39,0.967,0.975,1.24,0.889,0.958,1.14,0.8

# Remaining list, next part

Compound,odorant receptor activation (OR10R2 clone 1400),odorant receptor activation (OR10T2 clone 1032),odorant receptor activation [1],odorant receptor activation (OR10W1 R263Q clone 1176),odorant receptor activation (OR10X1 clone 1368),odorant receptor activation (OR10X1 clone 1516),odorant receptor activation (OR10Z1 clone 1026),odorant receptor activation (OR11A1 clone 1062),odorant receptor activation (OR11H1 clone 1558),odorant receptor activation (OR11H12 clone 1302),odorant receptor activation (OR11H13 clone 1435),odorant receptor activation (OR11H4 clone 1263),odorant receptor activation (OR11H4 clone 1423),odorant receptor activation (OR11H6 clone 1275),odorant receptor activation [2],odorant receptor activation [3],odorant receptor activation (OR12D2 clone 1075),odorant receptor activation (OR12D3 clone 1071),odorant receptor activation (OR13A1 clone 1107),odorant receptor activation (OR13C2 clone 1717)
CCCCCCC=O [heptaldehyde],0.975 and 0.847,1.23 and 1.11,,,1.04 and 0.947,,1.13 and 0.869,1.47 and 1.81,0.692,0.64 and 1.33 and 0.867,0.906 and 0.831,0.681 and 0.875 and 1.52,0.997 and 0.831,0.964 and 0.757 and 1.05,1.69 and 0.75,1.11 and 0.9,1.1 and 1.22,0.951 and 0.605,0.644 and 1.72,1.1
CC(=O)OC1CC2CCC1(C)C2(C)C (configuration not stated) [isobornyl acetate],0.729,1.43,1.01 and 0.993,1.06,1.09,1.17 and 1.15,0.659,0.634,0.88,1.37 and 0.678,0.783,1.31 and 1.22,0.826,1.2 and 0.996,0.362,0.89,0.887,0.598,1.47,1.48
CC12CCC(C1)C(C)(C)C2=O (configuration not stated) [fenchone],1.01,0.945,1.41,1.14,0.935,1.22,0.932,1.84,0.818,0.998,1.01,0.966,0.985,0.933,1.1,0.968,0.819,0.949,1.09,1.17
COc1cc(C)ccc1O [2-methoxy-4-methylphenol],0.649,1.89,0.76,1.12,0.802,0.792,2.15,1.83,1.04,1.7,1.47,0.913,1.01,0.768,2.02,0.182,1.34,2.22,7.32,0.816
CC(C)(O)CCCC1=CCC(C=O)CC1 (configuration not stated) [lyral],,,,,,,,,1.14,,,,,,,,,,,0.655
O=C1CCCCCCCCCCCCCCO1 [pentadecalactone],0.934,0.939,0.857,0.728,0.814,0.776,0.732,0.991,0.71,0.762,1.71,0.727,0.962,0.689,0.828,0.956,1.18,0.929,1.29,0.793
CC(=O)OC(C)(C)C1CC=C(C)CC1 (configuration not stated) [terpinyl acetate],0.903,1.64,1.05,1.27,0.658,0.806,0.798,2.13,1.47,0.787,1.42,0.879,0.839,0.893,1.11,0.813,1.46,1.08,1.14,0.988
COc1ccccc1O [guaiacol],0.703,1.17,0.564 and 1.01,1.14,1.03,0.915 and 1.23,1.09,1.42,0.786,1.06 and 0.823,0.64,0.946 and 1.27,0.85,0.607 and 0.849,0.638,0.925,1.75,0.693,2.11,0.904
CC1COCc2cc3c(cc21)C(C)(C)C(C)C3(C)C (configuration not stated) [galaxolide],2.99,2.97,2.21 and 6.56,4.57,4.66,1.55 and 4.53,3.13,2.94,0.912 and 1.93,1.54 and 4.29,2.14,1.72 and 1.34,4.36,,2.12,3.57,3.03,2.26,4.79,
CC(C)C=O [isobutyraldehyde],0.905,0.703,1.13 and 1.1,1.09,0.903,1.09 and 0.908,1.28,1.4,0.786,,0.842,0.79 and 1.25,0.925,1.07 and 0.692,0.485,0.952,1.33,0.858,0.967,0.935
C=C(C)C1CCC2=CC(=O)CC(C)C2(C)C1 (configuration not stated) [amyl laurate],,,,,,,,,1.32,,,,,,,,,,,1.05
C=CCc1ccc(O)c(OC)c1 [eugenol],1.14 and 1.39,1.54 and 1.48,1.54 and 1.01 and 1.4,2.2 and 1.47,1.47 and 1.23,2.04 and 1.09 and 1.54,1.86 and 1.5,0.861 and 1.63,1.03,2 and 1.4,1.58 and 1.38,1.91 and 1.3,1.49 and 1.45,2.6 and 1.3,1.52 and 1.27,1.22 and 1.37,1.24 and 1.2,0.747 and 1.2,1.29 and 1.41,1.06
CC12C=CCC1C1CCC3=CC(=O)CCC3(C)C1CC2 (configuration not stated) [androstadienone],0.896,1.15,0.776 and 1.25,0.863,1.02,1.18 and 1.31,0.909,2.36,,1.52 and 0.752,0.86,1.15 and 1.17,1.02,0.882 and 0.918,0.54,0.898,5.18,1.21,2.37,
COC(=O)c1ccccc1 [methyl benzoate],0.702,1.55,0.545 and 1.26,1.05,1.13,1.13 and 0.935,1.26,0.754,,0.941,0.877,0.935,0.68,0.891,1.2,0.894,1.23,0.799,0.689,
CCCCCCCC=CC=O [2-decenal],0.964,17.2,1.39,0.766,1.1,1.54,12.7,4.13,1.45,2.22,2.42,1.55,1.03,1.04,8.39,0.413,2.69,5.27,16.7,0.88

# Limited to odorant receptor activation (OR12D2 clone 1075), for some of the entries so far:
Compound,odorant receptor activation (OR12D2 clone 1075)
CCCCCC(C)=O [2-heptanone],0.622
CC12C=CCC1C1CCC3CC(=O)CCC3(C)C1CC2 (configuration not stated) [androstenone],1.27

# — the odorant receptor screen of Mainland et al. (2015)
